# Assay results as given in PMC8764522.
# Results are given in words; binding and its absence hold for the method and conditions named. Binding calls can cover weak binding; strength is not graded here.
# B1: PilC, type IV pili inner-membrane platform protein (protein, UniProt P22609 1-374)
# chain: MLVKAHLRKQGINPLKVRKKGISLLGAGKKVKPMDIALFTRQMATMMGAGVPLLQSFDIIGEGFDNPNMRKLVDEIKQEVSSGNSLANSLRKKPQYFDELYCNLVDAGEQSGALENLLDRVATYKEKTESLKAKIRKAMTYPIAVIIVALIVSAILLIKVVPQFQSVFQGFGAELPAFTQMVVNLSEFLQEWWLAVIVGVGAIGFTFKELHKRSKKFRDTLDRTILKLPIFGGIVYKSAVARYARTLSTTFAAGVPLVDALDSVSGATGNIVFKNAVSKIKQDVSTGMQLNFSMRTTSVFPNMAIQMTAIGEESGSLDEMLSKVASYYEEEVDNAVDNLTTLMEPMIMAVLGVLVGGLIVAMYLPIFQLGNVVG
# Biological target: PfsE^W18A (filamentous bacteriophage Pf4 (prophage of P. aeruginosa PAO1))
# Assay: two-hybrid; bacterial adenylate cyclase two-hybrid (BACTH) in E. coli BTH101; fusions in pKT25 and pUT18C; X-gal and MacConkey agar plates with 1 mM IPTG, 30°C, 48 h; read-out β-galactosidase activity (colour change)
binder,measurement,value
B1,binding,binds
